Data as given in PubChem BioAssay AID1508588 (Peter MacCallum Cancer Centre, 2020).
Purpose: 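Knock-downs boosting vemurafenib effects on melanoma cell growth or lactate release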 (primary screen). Cell system: human WM266.4 melanoma cells (BRAF V600 mutant). Knock-down reagent: siRNA pool against human genes, 40 nM. Time to read-out: 96 h from transfection to read-out. Treatment: vemurafenib 300 nM (about IC25), added 48 h after transfection, for 48 h; comparison arm got DMSO vehicle only. Detection: 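Cell gain (DAPI nuclei at end minus before drug, mean of two replicates) and medium lactate by absorbance per cell, both as ratio to non-targeting siRNA, also grouped into fold-change classes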. Scale: cell gain with vemurafenib: higher = more cell gain than with non-targeting siRNA; lactate per cell with vemurafenib: higher = more lactate made per cell. Call rule: 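a knock-down counts as enhancing when its fold-change classes with vehicle and with vemurafenib, taken together, show a stronger drug effect on cell gain or lactate per cell; exact class pairs not stated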. Calls: active = enhances vemurafenib effect; inactive = no enhancement seen.
Here is an unselected part of about 18,000 reagents. Of all reagents, 790 (4.4%) got an active call. 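Calls rest on a combination of fold-change classes in drug and vehicle arms, not all shown here.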

What did the screen give for CCNB1IP1?
cell gain with vemurafenib: 0.95; lactate per cell with vemurafenib: 0.48; Call: inactive

With FGFR1OP2, what does the deposit list?
cell gain with vemurafenib: 0.34; lactate per cell with vemurafenib: 0.76; Call: inactive

What is on record for ZBTB20?
cell gain with vemurafenib: 0.84; lactate per cell with vemurafenib: 1.27; Call: inactive

Which result is listed for ADAMTS10?
cell gain with vemurafenib: 0.54; lactate per cell with vemurafenib: 1.19; Call: inactive

For CHTF8, how do the results read?
cell gain with vemurafenib: 0.73; lactate per cell with vemurafenib: 0.78; Call: inactive

What is on record for ETFA?
cell gain with vemurafenib: 0.34; lactate per cell with vemurafenib: 1.02; Call: inactive

What is on record for EFNA5?
cell gain with vemurafenib: 0.79; lactate per cell with vemurafenib: 0.56; Call: inactive

How did the screen score WSCD1?
cell gain with vemurafenib: 0.78; lactate per cell with vemurafenib: 0.69; Call: inactive

With DGKA, how do the results read?
cell gain with vemurafenib: 0.43; lactate per cell with vemurafenib: 0.74; Call: inactive

For ZNF321P, what was measured?
cell gain with vemurafenib: 0.24; lactate per cell with vemurafenib: 0.28; Call: active

How did the screen score GALNT3?
cell gain with vemurafenib: 0.77; lactate per cell with vemurafenib: 1.11; Call: inactive

What did the screen give for ACAA2?
cell gain with vemurafenib: 0.88; lactate per cell with vemurafenib: 0.55; Call: inactive

What is on record for SLC8A3?
cell gain with vemurafenib: 1.18; lactate per cell with vemurafenib: 0.54; Call: inactive

For TCERG1, what was measured?
cell gain with vemurafenib: 0.52; lactate per cell with vemurafenib: 1.58; Call: inactive

Which result is listed for RBP2?
cell gain with vemurafenib: 0.48; lactate per cell with vemurafenib: 0.88; Call: inactive

With DEFB112, what was measured?
cell gain with vemurafenib: 0.54; lactate per cell with vemurafenib: 2.24; Call: inactive

What is on record for VAV1?
cell gain with vemurafenib: 0.75; lactate per cell with vemurafenib: 1.12; Call: inactive

How did the screen score KCTD18?
cell gain with vemurafenib: 0.5; lactate per cell with vemurafenib: 0.43; Call: active

For HTN3, how do the results read?
cell gain with vemurafenib: 0.19; lactate per cell with vemurafenib: 1.05; Call: inactive

What is on record for DCAF12L1?
cell gain with vemurafenib: 0.44; lactate per cell with vemurafenib: 0.54; Call: inactive

Which result is listed for RAE1?
cell gain with vemurafenib: 0.68; lactate per cell with vemurafenib: 1.14; Call: inactive

With FMR1NB, how do the results read?
cell gain with vemurafenib: 0.66; lactate per cell with vemurafenib: 0.6; Call: inactive

How did the screen score CYTH2?
cell gain with vemurafenib: 0.24; lactate per cell with vemurafenib: 1.99; Call: inactive

How did the screen score ATP5MF?
cell gain with vemurafenib: 0.66; lactate per cell with vemurafenib: 0.67; Call: inactive

What did the screen give for ACTL8?
cell gain with vemurafenib: 0.75; lactate per cell with vemurafenib: 1.16; Call: inactive

What is on record for TNFAIP6?
cell gain with vemurafenib: 0.46; lactate per cell with vemurafenib: 0.92; Call: inactive

For ARID3A, what was measured?
cell gain with vemurafenib: 0.88; lactate per cell with vemurafenib: 0.9; Call: inactive

What did the screen give for TCP1?
cell gain with vemurafenib: 0.78; lactate per cell with vemurafenib: 1.29; Call: inactive

What is on record for BMP1?
cell gain with vemurafenib: 0.52; lactate per cell with vemurafenib: 0.86; Call: inactive

With NCAM1, how do the results read?
cell gain with vemurafenib: 0.73; lactate per cell with vemurafenib: 1.3; Call: inactive

For MST1, what was measured?
cell gain with vemurafenib: 0.59; lactate per cell with vemurafenib: 0.96; Call: inactive

For ITGA10, how do the results read?
cell gain with vemurafenib: 0.71; lactate per cell with vemurafenib: 0.95; Call: inactive

What did the screen give for NABP1?
cell gain with vemurafenib: 0.17; lactate per cell with vemurafenib: 2.06; Call: inactive

For MED4, what was measured?
cell gain with vemurafenib: 0.54; lactate per cell with vemurafenib: 0.71; Call: inactive

With KDM3A, what does the deposit list?
cell gain with vemurafenib: 0.81; lactate per cell with vemurafenib: 0.46; Call: active

With PTX4, what was measured?
cell gain with vemurafenib: 0.6; lactate per cell with vemurafenib: 0.72; Call: inactive

With NEU1, what does the deposit list?
cell gain with vemurafenib: 0.34; lactate per cell with vemurafenib: 1.47; Call: inactive

For ARHGEF37, what was measured?
cell gain with vemurafenib: 0.96; lactate per cell with vemurafenib: 0.82; Call: inactive

For HADHB, what does the deposit list?
cell gain with vemurafenib: 0.69; lactate per cell with vemurafenib: 0.76; Call: inactive

What is on record for PIGS?
cell gain with vemurafenib: 0.66; lactate per cell with vemurafenib: 0.72; Call: inactive

Entries above whose gene name begins with D or d:
DGKA → cell gain with vemurafenib: 0.43; lactate per cell with vemurafenib: 0.74; Call: inactive
DEFB112 → cell gain with vemurafenib: 0.54; lactate per cell with vemurafenib: 2.24; Call: inactive
DCAF12L1 → cell gain with vemurafenib: 0.44; lactate per cell with vemurafenib: 0.54; Call: inactive
